Values from PubChem BioAssay AID1259405 (NCATS, 2018)
The deposit covers about 50,000 reagents; shown is a random part of them. In the full data, about 4,000 (8%) are marked active. 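Mouse siRNA library applied to hamster cells; one well for each siRNA.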 A number with no mark means an inactive call. The numbers tell different reagents against one gene apart. No sequences are given here.

- Screen: 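Silenced genes that increase secreted GFP made by CHO cells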 (primary screen)
- Cells: Chinese hamster CHO-K1 ovary cells with stable secreted eGFP expression
- Reagent: single siRNA against mouse genes, 0.8 pmol siRNA per well (2 µl of 400 nM stock)
- Time to read-out: 3 days
- Measurement: 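Per-well intracellular GFP measured by laser scanning cytometry, plus viability from ATP luminescence, each relative to plate median of non-targeting control wells, in %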
- Direction: GFP, % of control: higher = more GFP per well, higher productivity; viability (ATP), % of control: higher = more viable cells (more ATP)
- Call rule: 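Called active when intracellular GFP, relative to negative control, is at or above 120%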

What did the screen give for Pimreg #1?
GFP, % of control: 93.8; viability (ATP), % of control: 49.8

For Pimreg #2, how do the results read?
GFP, % of control: 93.3; viability (ATP), % of control: 94.1

For Pimreg #3, what does the deposit list?
GFP, % of control: 154 (active); viability (ATP), % of control: 129

Which result is listed for Dtd2 #1?
GFP, % of control: 55.5; viability (ATP), % of control: 85.4

How did the screen score Dtd2 #2?
GFP, % of control: 97.7; viability (ATP), % of control: 102

Which result is listed for Dtd2 #3?
GFP, % of control: 124 (active); viability (ATP), % of control: 92.3

With Ubxn4 #1, how do the results read?
GFP, % of control: 90.5; viability (ATP), % of control: 71.8

What is on record for Ubxn4 #2?
GFP, % of control: 72.6; viability (ATP), % of control: 81.3

Which result is listed for Ubxn4 #3?
GFP, % of control: 100; viability (ATP), % of control: 133

What did the screen give for Or52n2c #1?
GFP, % of control: 136 (active); viability (ATP), % of control: 97.5

How did the screen score Or52n2c #2?
GFP, % of control: 98.7; viability (ATP), % of control: 65.6

How did the screen score Or52n2c #3?
GFP, % of control: 54.4; viability (ATP), % of control: 81.6

What did the screen give for Doc2a #1?
GFP, % of control: 64; viability (ATP), % of control: 86

How did the screen score Doc2a #2?
GFP, % of control: 164 (active); viability (ATP), % of control: 113

For Doc2a #3, what was measured?
GFP, % of control: 74.8; viability (ATP), % of control: 91.5

With Pno1 #1, what does the deposit list?
GFP, % of control: 148 (active); viability (ATP), % of control: 93.1

With Pno1 #2, what does the deposit list?
GFP, % of control: 79.6; viability (ATP), % of control: 58.2

With Pno1 #3, what was measured?
GFP, % of control: 92.7; viability (ATP), % of control: 91.6
